Measured values reported in PubChem BioAssay AID1347076 (National Center for Advancing Translational Sciences (NCATS), 2019).
The campaign covered roughly 400,000 compounds. About 13,000 (3.2%) were called active. The shares of active, inactive and inconclusive entries below differ from those in the screen. Calls come from the whole dose curve; as a rule, active = well fitted cell-killing curve with a large enough effect; inconclusive = small, poorly fitted or top-dose-only effect, or effect the other way; inactive = flat fitted curve, though single readings scatter. Where the call is inconclusive, the potency comes from a doubtful curve fit.

Assay: qHTS assay for MDR1-selective chemotherapeutics: Primary screen using the drug-selected MDR subline cells KB-V1; note: nearly all actives have a fitted effect of over 60% in size
Conditions: KB-V1 MDR cells viability, CellTiter-Glo, 72 h; activity change, negative = cytotoxicity: at 46.1 µM (top of the series)
Outline: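 KB-V1, DMEM (no phenol red) + 10% FBS; cpd pin-transferred, titration series; 72 h, 37 degrees C; CellTiter-Glo, luminescence. Data normalized, curve-fit.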
% is set by controls: 0 for no effect and ±100 for the full control effect; potency is the fitted concentration of half-maximal effect.

Structure (SMILES)	Potency	activity change, negative = cytotoxicity
CCC(C)n1c(=O)c(C(=O)Nc2ccccc2S(N)(=O)=O)c(O)c2ccccc21 (stereo unspecified)	inconclusive: 29.1 µM [cytotoxic, single point]	–
Cc1ccc2[nH]c(=O)c(CN(CCCO)Cc3nnnn3Cc3ccccc3)cc2c1	–	inactive: -1.14%
CCCCOc1ccc(C2C3CN(C(=O)OCC)CC=C3C(C#N)=C(N)C2(C#N)C#N)cc1OC (stereo unspecified)	inconclusive: 2.06 µM [cytotoxic, full curve]	–
CSc1ncnc2c1ncn2CCCNCCCc1ccccc1	–	inactive: 28.2%
O=CNC1CCCc2c1[nH]c1ccc(Cl)cc21 (stereo unspecified)	inconclusive: 29.1 µM [cytotoxic, single point]	–
Cc1ccc(OCCN2CCN(C)CC2)c([N+](=O)[O-])c1	inconclusive: 16.4 µM [cytotoxic, partial curve]	–
Cc1ccc(C(C(=O)NCc2ccc(F)cc2)N(Cc2ccco2)C(=O)c2snc(C(N)=O)c2N)o1 (stereo unspecified)	inconclusive: 29.1 µM [cytotoxic, single point]	–
Cc1ccc2c(c1C)NC(=O)C2(O)CC(=O)c1ccc2c(c1)OCO2 (stereo unspecified)	inconclusive: 29.1 µM [cytotoxic, single point]	–
COc1ccc(NC(=O)CCN2C(=O)C3C4CCC(C4)C3C2=O)cc1 (stereo unspecified)	–	inactive: -3.08%
Cc1cc(NN)nc2ccc(Cl)cc12	active: 13 µM	–
CN(CC(=O)Nc1ccccc1Cl)C(=O)COC(=O)c1ccc([N+](=O)[O-])s1	–	inactive: 8.13%
Cc1cccc(C)c1-n1nnnc1C(c1ccnc2ccccc12)N1CCCC1 (stereo unspecified)	inconclusive: 9.2 µM [cytotoxic, partial curve]	–
C/C(=N/NC(=O)c1ccc2c(c1)OCO2)c1ccc(NC(=O)c2ccc(F)cc2)cc1	–	inactive: 27.4%
CC(C)(C)C1CCc2sc(C(=O)NNC(=O)CCl)cc2C1 (stereo unspecified)	–	inactive: -15%
CC(C)(C)NCc1cccn1-c1sc2c(c1C#N)CCCC2	active: 16.4 µM	–
CN(C)c1ccccc1C(=O)N1CCCC(C(=O)c2ccc3ccccc3c2)C1 (stereo unspecified)	inconclusive: 7.31 µM [cytotoxic, partial curve]	–
O=C(c1ccc(Cl)cc1)c1c[nH]c(C(=O)NNc2cccc(Cl)n2)c1	–	inactive: -19.6%
Cc1cc(OC(C)C)c2c(-c3ccccc3)cc(=O)oc2c1	inconclusive: 20.6 µM [cytotoxic, single point]	–
O=C(CSc1nc(C(F)(F)F)cc(=O)[nH]1)NCc1ccc2c(c1)OCO2	–	inactive: 1.61%
COc1ccc(OC)c(C2=Nn3c(nnc3-c3cc(C)[nH]n3)SC2)c1	inconclusive: 29.1 µM [cytotoxic, single point]	–
CCN(CC)Cc1c(O)ccc2c(=O)c(-c3ccc(Cl)cc3)coc12	–	inactive: -1.24%

Some of the entries so far, with bars between the fields:
Structure (SMILES) | Potency | activity change, negative = cytotoxicity
O=CNC1CCCc2c1[nH]c1ccc(Cl)cc21 (stereo unspecified) | inconclusive: 29.1 µM [cytotoxic, single point] | –
Cc1ccc(OCCN2CCN(C)CC2)c([N+](=O)[O-])c1 | inconclusive: 16.4 µM [cytotoxic, partial curve] | –
CC(C)(C)C1CCc2sc(C(=O)NNC(=O)CCl)cc2C1 (stereo unspecified) | – | inactive: -15%
O=C(CSc1nc(C(F)(F)F)cc(=O)[nH]1)NCc1ccc2c(c1)OCO2 | – | inactive: 1.61%
